Reference: the supplement of paper PMC12067093, “Discovery and optimisation of a covalent ligand for TRIM25 and its application to targeted protein ubiquitination” (Chemical Science, 2025)
The other results are listed elsewhere or left out.

Sequences of proteins named here, by UniProt entry; tags and fusion partners are left off. A change or cut given only in a name is not applied to a line headed by its entry.
UniProt Q9NWK9: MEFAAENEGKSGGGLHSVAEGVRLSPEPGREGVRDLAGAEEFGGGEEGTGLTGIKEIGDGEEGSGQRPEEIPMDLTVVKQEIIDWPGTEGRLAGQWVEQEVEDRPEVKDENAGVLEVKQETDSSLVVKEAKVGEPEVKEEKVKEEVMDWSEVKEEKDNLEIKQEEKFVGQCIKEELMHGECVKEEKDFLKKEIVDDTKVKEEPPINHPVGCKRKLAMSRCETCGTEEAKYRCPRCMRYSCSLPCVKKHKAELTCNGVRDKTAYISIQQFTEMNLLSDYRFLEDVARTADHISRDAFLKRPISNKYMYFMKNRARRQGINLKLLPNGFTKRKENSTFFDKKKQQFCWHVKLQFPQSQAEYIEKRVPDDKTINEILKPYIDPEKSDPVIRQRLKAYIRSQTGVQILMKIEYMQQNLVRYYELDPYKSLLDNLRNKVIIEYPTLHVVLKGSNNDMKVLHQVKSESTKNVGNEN
UniProt Q15942: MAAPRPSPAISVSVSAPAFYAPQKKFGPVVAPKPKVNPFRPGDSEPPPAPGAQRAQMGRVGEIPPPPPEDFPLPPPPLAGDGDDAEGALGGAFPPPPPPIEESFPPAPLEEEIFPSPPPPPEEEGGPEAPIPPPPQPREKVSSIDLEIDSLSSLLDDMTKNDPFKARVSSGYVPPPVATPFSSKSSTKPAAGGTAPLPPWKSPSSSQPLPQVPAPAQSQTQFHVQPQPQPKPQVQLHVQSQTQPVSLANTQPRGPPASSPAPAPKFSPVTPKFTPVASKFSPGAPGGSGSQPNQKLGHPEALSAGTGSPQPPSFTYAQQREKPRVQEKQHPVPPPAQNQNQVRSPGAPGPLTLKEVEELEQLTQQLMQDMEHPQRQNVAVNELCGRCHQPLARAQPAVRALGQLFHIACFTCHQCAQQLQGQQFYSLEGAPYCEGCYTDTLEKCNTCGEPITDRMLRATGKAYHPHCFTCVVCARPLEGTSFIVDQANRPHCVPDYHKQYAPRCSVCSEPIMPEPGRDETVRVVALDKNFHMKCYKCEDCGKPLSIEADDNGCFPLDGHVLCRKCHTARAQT
UniProt A7E2V4, whole entry, looked up: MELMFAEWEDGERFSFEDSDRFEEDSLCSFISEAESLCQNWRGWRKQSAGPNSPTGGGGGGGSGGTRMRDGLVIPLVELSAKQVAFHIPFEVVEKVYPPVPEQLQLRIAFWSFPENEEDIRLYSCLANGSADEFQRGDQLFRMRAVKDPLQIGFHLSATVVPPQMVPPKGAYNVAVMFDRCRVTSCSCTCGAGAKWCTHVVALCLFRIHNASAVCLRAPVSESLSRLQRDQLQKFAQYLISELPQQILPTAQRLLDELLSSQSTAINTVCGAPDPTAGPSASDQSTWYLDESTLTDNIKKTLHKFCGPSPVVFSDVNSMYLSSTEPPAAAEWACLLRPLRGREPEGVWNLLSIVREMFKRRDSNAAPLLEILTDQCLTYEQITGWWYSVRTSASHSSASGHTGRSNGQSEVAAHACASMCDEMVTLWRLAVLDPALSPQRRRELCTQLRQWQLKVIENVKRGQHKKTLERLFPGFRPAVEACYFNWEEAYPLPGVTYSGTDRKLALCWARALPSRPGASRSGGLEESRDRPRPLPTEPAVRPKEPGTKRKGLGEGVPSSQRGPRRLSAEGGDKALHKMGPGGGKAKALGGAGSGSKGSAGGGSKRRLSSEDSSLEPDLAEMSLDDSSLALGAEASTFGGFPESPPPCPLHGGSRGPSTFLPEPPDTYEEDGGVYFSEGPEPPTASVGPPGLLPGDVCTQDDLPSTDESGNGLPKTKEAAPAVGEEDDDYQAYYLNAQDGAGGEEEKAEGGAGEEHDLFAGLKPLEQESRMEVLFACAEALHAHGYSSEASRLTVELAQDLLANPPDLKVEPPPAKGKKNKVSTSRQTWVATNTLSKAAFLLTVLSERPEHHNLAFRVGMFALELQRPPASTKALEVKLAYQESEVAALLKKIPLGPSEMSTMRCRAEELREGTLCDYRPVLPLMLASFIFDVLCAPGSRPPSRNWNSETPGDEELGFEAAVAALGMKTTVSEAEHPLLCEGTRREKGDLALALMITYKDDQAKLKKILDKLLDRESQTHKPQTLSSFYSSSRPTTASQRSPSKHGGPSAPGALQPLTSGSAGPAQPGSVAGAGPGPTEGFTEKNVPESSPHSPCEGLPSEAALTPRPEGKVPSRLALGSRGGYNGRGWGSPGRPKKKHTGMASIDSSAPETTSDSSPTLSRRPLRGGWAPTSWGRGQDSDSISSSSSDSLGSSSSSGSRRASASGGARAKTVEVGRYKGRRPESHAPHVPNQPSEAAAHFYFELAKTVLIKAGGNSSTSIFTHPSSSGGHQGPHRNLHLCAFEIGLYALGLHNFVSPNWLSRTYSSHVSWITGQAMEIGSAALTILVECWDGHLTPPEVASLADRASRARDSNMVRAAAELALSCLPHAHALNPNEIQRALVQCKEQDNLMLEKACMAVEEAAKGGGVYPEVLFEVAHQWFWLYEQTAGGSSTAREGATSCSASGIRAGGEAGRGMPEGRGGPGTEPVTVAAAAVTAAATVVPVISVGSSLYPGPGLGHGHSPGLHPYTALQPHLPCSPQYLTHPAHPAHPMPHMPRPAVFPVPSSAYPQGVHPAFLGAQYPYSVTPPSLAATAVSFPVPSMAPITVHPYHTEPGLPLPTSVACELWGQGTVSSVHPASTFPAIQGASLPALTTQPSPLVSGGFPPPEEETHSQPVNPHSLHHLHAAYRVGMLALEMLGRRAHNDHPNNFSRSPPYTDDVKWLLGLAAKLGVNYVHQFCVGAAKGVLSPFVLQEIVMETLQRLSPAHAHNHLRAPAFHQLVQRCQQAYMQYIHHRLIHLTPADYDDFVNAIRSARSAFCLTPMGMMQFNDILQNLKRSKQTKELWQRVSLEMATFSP
UniProt Q9P2E3: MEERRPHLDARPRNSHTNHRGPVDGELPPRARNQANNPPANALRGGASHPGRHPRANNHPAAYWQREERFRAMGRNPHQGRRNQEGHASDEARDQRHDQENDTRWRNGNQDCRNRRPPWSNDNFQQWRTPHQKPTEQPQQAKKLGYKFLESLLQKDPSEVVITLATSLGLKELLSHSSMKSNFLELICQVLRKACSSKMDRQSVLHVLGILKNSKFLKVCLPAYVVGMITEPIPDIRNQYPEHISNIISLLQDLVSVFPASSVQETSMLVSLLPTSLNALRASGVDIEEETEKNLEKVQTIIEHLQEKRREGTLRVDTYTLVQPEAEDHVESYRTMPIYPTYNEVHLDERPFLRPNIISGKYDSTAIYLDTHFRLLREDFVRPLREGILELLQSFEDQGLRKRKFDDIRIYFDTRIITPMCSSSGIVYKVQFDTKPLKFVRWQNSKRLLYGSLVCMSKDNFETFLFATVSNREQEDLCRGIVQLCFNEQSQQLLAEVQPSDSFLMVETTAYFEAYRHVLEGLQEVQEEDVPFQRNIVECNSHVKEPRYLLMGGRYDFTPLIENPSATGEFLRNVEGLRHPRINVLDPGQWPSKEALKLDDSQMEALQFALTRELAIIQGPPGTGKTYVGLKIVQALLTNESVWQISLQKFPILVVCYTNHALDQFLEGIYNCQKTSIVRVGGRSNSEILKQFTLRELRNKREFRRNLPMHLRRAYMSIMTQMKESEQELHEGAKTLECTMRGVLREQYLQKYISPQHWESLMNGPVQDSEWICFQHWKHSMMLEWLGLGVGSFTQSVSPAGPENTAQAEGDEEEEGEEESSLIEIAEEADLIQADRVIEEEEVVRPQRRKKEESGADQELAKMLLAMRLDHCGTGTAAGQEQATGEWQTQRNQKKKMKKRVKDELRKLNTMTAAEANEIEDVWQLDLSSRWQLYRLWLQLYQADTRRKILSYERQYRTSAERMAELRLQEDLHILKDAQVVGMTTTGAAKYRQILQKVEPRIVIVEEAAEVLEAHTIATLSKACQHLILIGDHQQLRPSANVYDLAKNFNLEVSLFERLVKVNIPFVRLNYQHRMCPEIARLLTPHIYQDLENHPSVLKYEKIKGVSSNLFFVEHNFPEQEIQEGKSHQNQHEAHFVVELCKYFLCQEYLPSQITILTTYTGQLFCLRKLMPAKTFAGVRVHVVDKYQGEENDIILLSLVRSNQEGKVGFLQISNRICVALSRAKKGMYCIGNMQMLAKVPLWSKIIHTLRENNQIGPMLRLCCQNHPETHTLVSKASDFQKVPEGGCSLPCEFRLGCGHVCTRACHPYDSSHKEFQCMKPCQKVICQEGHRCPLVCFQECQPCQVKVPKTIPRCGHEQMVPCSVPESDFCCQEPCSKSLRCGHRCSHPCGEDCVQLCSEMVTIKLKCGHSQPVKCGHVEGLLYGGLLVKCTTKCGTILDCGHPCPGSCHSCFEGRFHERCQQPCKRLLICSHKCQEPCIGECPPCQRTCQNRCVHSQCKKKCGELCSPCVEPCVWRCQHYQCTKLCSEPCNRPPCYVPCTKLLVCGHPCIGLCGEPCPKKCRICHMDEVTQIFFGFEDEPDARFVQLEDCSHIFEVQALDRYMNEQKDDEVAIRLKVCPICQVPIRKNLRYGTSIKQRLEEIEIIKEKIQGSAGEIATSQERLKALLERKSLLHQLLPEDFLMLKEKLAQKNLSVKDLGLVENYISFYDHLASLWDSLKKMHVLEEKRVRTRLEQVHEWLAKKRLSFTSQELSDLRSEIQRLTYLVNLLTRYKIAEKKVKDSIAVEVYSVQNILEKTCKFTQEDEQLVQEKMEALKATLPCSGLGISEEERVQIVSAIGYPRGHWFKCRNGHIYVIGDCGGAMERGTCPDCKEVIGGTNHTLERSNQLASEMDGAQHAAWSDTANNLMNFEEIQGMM
UniProt O95218: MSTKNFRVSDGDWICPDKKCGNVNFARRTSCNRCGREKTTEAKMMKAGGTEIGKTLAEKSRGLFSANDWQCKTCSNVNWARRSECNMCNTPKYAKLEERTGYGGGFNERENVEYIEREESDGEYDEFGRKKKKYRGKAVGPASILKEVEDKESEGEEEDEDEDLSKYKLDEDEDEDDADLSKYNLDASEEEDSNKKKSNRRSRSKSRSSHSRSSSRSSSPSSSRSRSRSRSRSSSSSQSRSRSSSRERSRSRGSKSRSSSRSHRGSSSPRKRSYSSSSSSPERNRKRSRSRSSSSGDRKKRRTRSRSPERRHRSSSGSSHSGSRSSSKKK
UniProt O43264: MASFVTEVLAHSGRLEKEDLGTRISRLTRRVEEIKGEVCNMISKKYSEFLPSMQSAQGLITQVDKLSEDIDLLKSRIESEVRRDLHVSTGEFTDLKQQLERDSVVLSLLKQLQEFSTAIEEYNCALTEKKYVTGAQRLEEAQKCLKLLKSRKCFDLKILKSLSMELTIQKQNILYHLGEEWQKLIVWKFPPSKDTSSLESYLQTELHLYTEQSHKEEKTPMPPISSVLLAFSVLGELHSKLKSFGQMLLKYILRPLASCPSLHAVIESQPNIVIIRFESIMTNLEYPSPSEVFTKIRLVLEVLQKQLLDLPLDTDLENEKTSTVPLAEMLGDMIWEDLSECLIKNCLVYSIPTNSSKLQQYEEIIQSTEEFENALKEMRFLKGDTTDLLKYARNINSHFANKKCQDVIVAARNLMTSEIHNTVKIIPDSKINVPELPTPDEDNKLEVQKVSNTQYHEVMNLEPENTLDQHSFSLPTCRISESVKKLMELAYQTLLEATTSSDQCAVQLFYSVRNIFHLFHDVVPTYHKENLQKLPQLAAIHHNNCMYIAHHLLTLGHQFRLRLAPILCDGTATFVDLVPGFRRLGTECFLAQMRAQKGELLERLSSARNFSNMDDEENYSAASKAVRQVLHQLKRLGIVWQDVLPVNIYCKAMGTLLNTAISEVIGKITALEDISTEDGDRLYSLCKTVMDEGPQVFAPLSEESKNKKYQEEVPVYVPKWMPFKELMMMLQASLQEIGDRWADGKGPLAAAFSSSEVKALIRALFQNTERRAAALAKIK
UniProt Q6NUN9: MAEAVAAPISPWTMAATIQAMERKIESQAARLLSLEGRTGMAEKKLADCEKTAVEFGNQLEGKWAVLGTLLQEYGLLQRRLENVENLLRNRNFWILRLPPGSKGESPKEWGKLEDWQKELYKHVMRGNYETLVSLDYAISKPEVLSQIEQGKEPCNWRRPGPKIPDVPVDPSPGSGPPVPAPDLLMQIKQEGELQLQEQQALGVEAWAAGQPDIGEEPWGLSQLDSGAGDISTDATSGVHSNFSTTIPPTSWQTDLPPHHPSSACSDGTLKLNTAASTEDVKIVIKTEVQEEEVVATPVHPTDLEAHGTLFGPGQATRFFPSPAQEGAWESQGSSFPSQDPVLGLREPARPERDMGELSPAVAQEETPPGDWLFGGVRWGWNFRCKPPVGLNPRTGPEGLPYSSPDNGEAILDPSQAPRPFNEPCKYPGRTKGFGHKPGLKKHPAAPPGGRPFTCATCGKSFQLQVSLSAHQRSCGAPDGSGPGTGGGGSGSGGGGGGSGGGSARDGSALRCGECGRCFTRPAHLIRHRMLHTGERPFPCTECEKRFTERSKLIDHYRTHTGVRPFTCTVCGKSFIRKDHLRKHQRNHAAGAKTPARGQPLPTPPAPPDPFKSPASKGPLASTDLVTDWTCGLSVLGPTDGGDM

Compound: CC1Cc2ccccc2N1C(=O)C1CCCN(C1)C(=O)CCl (mixture of isomers) [TRIM25 ligand 11 (diastereomer mixture)]
Assay: probe-labelled cysteine peptide fold change vs DMSO (competition) (log2 fold change); higher = less target engagement (more negative = stronger competition)
Settings: THP-1, incubation time: 4 h
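Further: competitive chemoproteomic profiling in live THP-1 cells with an iodoacetamide desthiobiotin (IA-DTB) probe, comparing probe-labelled peptide intensities in compound-treated cells against DMSO-treated controls.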

Row | Target | probe-labelled cysteine peptide fold change (10 µM) | probe-labelled cysteine peptide fold change (50 µM)
1 | ZNHIT6_Q9NWK9_171_FVGQCIK (UniProt Q9NWK9) | 0.0565 | -0.25
2 | ZYX_Q15942_492_PLEGTSFIVDQANRPHCVPDYHK (UniProt Q15942) | -0.0694 | -0.0353
3 | ZNRD1_Q9P1U0_115+118_SADEGQTVFYTCTNCK (UniProt Q9P1U0) | 0.152 | -0.2
4 | ZYX_Q15942_387_CHQPLAR (UniProt Q15942) | -0.149 | -0.164
5 | ZYX_Q15942_562_PLSIEADDNGCFPLDGHVLCR (UniProt Q15942) | -0.203 | -0.0291
6 | ZSWIM8_A7E2V4_1094_NVPESSPHSPCEGLPSEAALTPRPEGK (UniProt A7E2V4) | 0.00545 | -0.182
7 | ZYX_Q15942_470_AYHPHCFTCVVCAR (UniProt Q15942) | -0.0192 | 0.0143
8 | ZNF691_Q5VV52_257_THTGERPYECTECGR (UniProt Q5VV52) | 0.0167 | 0.08
9 | ZYX_Q15942_537+540+553+562_CEDCGKPLSIEADDNGCFPLDGHVLCR (UniProt Q15942) | -0.272 | -0.47
10 | ZZEF1_O43149_1832+1835_TCFLGGVKPEGHGDDHEMVNMEFTCDHCQGLIIGR (UniProt O43149) | 0.147 | -0.0608
11 | ZNFX1_Q9P2E3_1302_LGCGHVCTR (UniProt Q9P2E3) | -0.0121 | -0.0647
12 | ZSWIM8_A7E2V4_1365_AAAELALSCLPHAHALNPNEIQR (UniProt A7E2V4) | -0.283 | 0.386
13 | ZZEF1_O43149_2553_CDQATAESNPVTQK (UniProt O43149) | 0.225 | -0.0492
14 | ZNF768_Q9H5H4_378_THSHERPYSCTECGK (UniProt Q9H5H4) | -0.0576 | -0.159
15 | ZYX_Q15942_467_AYHPHCFTCVVCAR (UniProt Q15942) | -0.0414 | 0.0321
16 | ZRANB2_O95218_15_VSDGDWICPDK (UniProt O95218) | -0.0466 | 0.0327
17 | ZZEF1_O43149_728_DTEESVCGATLLLR (UniProt O43149) | 0.0329 | 0.0452
18 | ZRANB2_O95218_20_KCGNVNFAR (UniProt O95218) | -0.118 | -0.137
19 | ZNFX1_Q9P2E3_1416_CGHVEGLLYGGLLVK (UniProt Q9P2E3) | -0.0464 | -0.153

Row | Target | probe-labelled cysteine peptide fold change (10 µM) | probe-labelled cysteine peptide fold change (50 µM)
20 | ZNF8_P17098_450_HEWTEALGCDPPLSQDER (UniProt P17098) | -0.0363 | -0.105
21 | ZNF787_Q6DD87_180_SHSGLKPFVCPR (UniProt Q6DD87) | -0.0374 | 0.0143
22 | ZYG11B_Q9C0D3_207_LESLDISNTSITDITALLACK (UniProt Q9C0D3) | -0.184 | -0.278
23 | ZYX_Q15942_537_CEDCGKPLSIEADDNGCFPLDGHVLCR (UniProt Q15942) | -0.2 | -0.0799
24 | ZNF740_Q8NDX6_9_AQASLLACEGLAGVSLVPTAASK (UniProt Q8NDX6) | -0.102 | -0.0641
25 | ZNFX1_Q9P2E3_1558_LLVCGHPCIGLCGEPCPK (UniProt Q9P2E3) | 0.0303 | -0.113
26 | ZNFX1_Q9P2E3_1591_FVQLEDCSHIFEVQALDR (UniProt Q9P2E3) | 0.0663 | -0.0266
27 | ZNFX1_Q9P2E3_1554_LLVCGHPCIGLCGEPCPK (UniProt Q9P2E3) | 0.125 | 0.11
28 | ZYX_Q15942_507_CSVCSEPIMPEPGRDETVR (UniProt Q15942) | -0.134 | -0.122
29 | ZNF800_Q2TB10_49_SGIQQIIECFR (UniProt Q2TB10) | -0.12 | -0.00115
30 | ZW10_O43264_588_RLGTECFLAQMR (UniProt O43264) | -0.0254 | 0.0074
31 | ZZEF1_O43149_1259_HQVCPELELEASWPTHPHR (UniProt O43149) | -0.00151 | 0.062
32 | ZYX_Q15942_467+470_AYHPHCFTCVVCAR (UniProt Q15942) | -0.119 | -0.0219
33 | ZNF746_Q6NUN9_385_CKPPVGLNPR (UniProt Q6NUN9) | -0.0357 | 0.00372
34 | ZNHIT6_Q9NWK9_244_YSCSLPCVK (UniProt Q9NWK9) | -0.0986 | -0.0684
35 | ZYX_Q15942_537+553_CEDCGKPLSIEADDNGCFPLDGHVLCR (UniProt Q15942) | -0.198 | -0.132
36 | ZNRD1_Q9P1U0_78_TSVVFHQLGTAMPMSVEEGPECQGPVVDRR (UniProt Q9P1U0) | -0.107 | -0.29
37 | ZW10_O43264_477_VSNTQYHEVMNLEPENTLDQHSFSLPTCR (UniProt O43264) | -0.0262 | -0.109

From entry 4 up to 6, as listed above:
Row | Target | probe-labelled cysteine peptide fold change (10 µM) | probe-labelled cysteine peptide fold change (50 µM)
4 | ZYX_Q15942_387_CHQPLAR (UniProt Q15942) | -0.149 | -0.164
5 | ZYX_Q15942_562_PLSIEADDNGCFPLDGHVLCR (UniProt Q15942) | -0.203 | -0.0291
6 | ZSWIM8_A7E2V4_1094_NVPESSPHSPCEGLPSEAALTPRPEGK (UniProt A7E2V4) | 0.00545 | -0.182
